Assay [1] concerns the target gp175-miniTurboID (ΦPA3 RecA fused to miniTurboID) (Pseudomonas phage ΦPA3) (UniProt F8SK48). As to the kind of experiment: proximity labelling; miniTurboID fused to the bait, expressed in P. aeruginosa with 500 μM biotin, cells infected with ΦPA3 (MOI 3), collected 45 min post infection; biotinylated peptides captured on NeutrAvidin beads, LC-MS/MS; normalised to a miniTurboID-GFP control.

By UniProt entry, the sequences of proteins in these tests, tags left out. Where a name states a change or a piece, a line headed by the entry shows the natural chain unless it says otherwise.
UniProt F8SJN3: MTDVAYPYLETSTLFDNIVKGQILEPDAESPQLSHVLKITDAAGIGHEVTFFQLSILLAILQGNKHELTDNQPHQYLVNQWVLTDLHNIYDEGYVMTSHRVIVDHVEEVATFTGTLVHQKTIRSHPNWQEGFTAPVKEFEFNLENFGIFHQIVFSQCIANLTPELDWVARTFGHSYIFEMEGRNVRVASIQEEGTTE
UniProt F8SJV7: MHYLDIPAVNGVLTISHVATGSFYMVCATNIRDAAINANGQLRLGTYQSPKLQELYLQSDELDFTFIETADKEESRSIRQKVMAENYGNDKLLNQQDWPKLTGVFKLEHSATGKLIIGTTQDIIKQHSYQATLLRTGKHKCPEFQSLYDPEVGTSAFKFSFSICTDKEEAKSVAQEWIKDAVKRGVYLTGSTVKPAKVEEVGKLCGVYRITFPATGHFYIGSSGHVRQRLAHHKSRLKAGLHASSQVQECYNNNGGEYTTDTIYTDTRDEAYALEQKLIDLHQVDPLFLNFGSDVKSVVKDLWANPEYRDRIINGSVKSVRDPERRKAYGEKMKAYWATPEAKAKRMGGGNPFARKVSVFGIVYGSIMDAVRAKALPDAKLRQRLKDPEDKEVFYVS
UniProt F8SJP5: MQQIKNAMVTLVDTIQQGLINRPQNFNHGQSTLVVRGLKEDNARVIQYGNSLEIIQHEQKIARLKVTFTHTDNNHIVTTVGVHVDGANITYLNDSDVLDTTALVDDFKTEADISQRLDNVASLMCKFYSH
UniProt F8SJP3: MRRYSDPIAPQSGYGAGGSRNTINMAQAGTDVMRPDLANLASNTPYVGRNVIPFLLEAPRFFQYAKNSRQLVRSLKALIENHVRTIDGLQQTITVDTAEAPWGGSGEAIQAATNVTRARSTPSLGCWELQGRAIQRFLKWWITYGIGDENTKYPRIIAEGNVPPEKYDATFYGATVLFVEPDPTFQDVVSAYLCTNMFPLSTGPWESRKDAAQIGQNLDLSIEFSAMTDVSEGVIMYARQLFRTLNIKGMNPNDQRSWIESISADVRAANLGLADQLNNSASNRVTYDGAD
UniProt F8SJ43: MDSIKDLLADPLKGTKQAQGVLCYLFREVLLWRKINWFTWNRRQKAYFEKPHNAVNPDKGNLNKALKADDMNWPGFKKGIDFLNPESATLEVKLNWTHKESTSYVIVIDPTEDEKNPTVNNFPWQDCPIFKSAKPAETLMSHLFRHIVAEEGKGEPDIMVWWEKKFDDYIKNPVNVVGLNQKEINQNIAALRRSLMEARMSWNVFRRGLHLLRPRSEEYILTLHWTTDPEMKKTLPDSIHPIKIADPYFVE
UniProt F8SJT4: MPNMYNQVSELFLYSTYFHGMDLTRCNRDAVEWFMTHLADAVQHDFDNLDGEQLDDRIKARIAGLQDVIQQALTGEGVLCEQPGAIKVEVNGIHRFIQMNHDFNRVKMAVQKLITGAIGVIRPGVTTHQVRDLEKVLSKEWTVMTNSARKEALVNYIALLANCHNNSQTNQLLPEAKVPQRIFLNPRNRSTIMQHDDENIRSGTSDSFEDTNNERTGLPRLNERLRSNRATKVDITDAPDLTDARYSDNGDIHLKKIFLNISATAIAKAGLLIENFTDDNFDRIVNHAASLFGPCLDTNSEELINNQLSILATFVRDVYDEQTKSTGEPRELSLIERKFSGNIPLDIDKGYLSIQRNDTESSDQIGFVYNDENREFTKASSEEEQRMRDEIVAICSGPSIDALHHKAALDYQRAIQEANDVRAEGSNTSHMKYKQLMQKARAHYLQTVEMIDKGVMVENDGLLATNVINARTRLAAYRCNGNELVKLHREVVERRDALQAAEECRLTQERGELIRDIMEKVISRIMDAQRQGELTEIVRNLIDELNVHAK
UniProt F8SJK2: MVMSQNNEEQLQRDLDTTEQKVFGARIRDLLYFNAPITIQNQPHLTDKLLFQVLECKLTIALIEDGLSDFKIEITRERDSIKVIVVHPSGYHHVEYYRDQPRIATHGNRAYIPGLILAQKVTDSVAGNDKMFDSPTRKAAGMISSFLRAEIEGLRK
UniProt F8SJA8: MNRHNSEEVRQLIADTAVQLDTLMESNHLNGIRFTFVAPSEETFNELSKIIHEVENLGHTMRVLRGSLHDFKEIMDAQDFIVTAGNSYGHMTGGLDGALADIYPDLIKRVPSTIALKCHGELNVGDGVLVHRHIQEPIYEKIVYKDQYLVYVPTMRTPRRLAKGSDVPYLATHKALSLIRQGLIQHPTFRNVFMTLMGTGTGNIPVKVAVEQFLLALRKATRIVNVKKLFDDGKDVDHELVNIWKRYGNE
UniProt F8SK39: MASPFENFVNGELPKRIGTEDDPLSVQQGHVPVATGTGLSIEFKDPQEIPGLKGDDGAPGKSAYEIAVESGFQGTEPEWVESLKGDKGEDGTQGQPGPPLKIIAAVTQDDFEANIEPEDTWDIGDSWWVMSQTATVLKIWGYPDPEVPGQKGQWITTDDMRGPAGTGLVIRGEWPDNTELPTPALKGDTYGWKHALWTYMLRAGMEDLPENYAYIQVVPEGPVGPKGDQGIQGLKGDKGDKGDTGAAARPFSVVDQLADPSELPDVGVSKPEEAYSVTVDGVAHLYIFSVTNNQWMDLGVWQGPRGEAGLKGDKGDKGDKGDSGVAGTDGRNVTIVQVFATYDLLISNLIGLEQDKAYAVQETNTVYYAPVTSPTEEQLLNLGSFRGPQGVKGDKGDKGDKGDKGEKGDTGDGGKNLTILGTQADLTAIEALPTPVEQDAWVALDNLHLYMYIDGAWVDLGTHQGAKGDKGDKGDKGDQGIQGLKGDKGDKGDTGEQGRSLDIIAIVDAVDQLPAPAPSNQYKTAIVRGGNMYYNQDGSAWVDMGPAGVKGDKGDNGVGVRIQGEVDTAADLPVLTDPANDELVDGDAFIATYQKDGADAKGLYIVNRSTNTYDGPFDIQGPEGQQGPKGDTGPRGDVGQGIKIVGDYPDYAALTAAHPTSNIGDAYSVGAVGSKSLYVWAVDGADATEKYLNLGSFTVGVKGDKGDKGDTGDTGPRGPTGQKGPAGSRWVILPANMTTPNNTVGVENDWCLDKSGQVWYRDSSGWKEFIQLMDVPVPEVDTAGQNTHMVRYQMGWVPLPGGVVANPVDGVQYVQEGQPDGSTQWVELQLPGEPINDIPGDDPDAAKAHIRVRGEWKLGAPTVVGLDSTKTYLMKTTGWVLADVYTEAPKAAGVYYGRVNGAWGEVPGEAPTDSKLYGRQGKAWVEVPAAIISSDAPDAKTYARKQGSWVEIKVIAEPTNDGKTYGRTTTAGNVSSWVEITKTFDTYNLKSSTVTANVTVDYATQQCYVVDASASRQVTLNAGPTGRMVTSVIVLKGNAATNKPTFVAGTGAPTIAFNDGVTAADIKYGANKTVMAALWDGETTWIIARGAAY
UniProt F8SJM1: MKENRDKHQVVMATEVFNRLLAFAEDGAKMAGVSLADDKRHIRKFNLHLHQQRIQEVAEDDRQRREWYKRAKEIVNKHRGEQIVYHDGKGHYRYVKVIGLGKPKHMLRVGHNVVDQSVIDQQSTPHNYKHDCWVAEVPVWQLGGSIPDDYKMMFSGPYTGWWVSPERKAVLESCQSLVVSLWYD
UniProt F8SJK7: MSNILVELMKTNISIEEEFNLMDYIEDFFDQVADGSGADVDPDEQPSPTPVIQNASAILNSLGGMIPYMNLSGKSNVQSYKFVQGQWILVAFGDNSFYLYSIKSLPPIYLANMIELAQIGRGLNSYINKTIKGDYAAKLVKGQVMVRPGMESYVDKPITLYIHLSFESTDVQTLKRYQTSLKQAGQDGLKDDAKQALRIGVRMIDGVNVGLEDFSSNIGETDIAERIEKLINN
UniProt F8SJ82: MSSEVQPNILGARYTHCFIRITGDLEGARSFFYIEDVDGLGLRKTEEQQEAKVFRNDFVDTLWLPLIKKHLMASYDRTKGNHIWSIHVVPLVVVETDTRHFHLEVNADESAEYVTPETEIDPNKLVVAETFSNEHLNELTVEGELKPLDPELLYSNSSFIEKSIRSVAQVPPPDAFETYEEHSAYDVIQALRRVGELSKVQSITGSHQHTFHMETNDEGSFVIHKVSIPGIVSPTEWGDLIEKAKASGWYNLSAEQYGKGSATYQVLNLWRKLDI
UniProt F8SJ65: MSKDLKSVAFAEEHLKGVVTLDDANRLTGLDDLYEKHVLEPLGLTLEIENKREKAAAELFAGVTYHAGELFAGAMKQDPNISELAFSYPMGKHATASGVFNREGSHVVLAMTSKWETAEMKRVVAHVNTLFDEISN
UniProt F8SJY2: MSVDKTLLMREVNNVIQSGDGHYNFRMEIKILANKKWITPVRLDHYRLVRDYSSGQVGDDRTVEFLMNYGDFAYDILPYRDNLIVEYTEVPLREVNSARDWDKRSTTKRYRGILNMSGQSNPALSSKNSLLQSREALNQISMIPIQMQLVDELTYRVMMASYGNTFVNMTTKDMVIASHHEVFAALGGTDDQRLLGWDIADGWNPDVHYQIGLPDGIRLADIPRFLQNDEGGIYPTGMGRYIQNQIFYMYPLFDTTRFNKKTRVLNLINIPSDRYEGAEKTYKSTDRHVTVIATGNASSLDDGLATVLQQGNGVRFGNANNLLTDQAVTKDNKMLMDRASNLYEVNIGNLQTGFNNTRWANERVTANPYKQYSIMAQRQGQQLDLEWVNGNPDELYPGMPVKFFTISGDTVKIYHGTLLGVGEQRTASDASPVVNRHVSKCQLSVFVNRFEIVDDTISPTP
UniProt F8SJ62: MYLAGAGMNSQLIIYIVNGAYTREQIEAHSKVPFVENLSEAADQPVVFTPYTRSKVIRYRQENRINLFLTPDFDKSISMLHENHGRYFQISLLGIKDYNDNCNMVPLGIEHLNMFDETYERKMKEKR
UniProt F8SJ60: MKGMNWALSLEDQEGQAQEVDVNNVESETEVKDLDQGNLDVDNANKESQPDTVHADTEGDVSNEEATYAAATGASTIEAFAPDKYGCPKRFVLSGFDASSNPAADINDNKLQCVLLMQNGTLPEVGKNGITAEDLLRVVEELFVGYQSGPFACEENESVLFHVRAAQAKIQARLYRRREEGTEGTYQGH
UniProt F8SK05: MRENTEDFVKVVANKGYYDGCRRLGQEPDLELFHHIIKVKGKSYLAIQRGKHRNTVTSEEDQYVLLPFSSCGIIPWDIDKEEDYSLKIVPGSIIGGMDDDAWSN
UniProt F8SJ94: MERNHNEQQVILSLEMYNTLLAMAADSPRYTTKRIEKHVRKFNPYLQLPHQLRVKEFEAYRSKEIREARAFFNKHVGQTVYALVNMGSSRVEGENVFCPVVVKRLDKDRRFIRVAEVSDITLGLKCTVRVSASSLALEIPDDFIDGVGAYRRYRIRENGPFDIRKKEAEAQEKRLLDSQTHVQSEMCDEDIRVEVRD
UniProt F8SJ76: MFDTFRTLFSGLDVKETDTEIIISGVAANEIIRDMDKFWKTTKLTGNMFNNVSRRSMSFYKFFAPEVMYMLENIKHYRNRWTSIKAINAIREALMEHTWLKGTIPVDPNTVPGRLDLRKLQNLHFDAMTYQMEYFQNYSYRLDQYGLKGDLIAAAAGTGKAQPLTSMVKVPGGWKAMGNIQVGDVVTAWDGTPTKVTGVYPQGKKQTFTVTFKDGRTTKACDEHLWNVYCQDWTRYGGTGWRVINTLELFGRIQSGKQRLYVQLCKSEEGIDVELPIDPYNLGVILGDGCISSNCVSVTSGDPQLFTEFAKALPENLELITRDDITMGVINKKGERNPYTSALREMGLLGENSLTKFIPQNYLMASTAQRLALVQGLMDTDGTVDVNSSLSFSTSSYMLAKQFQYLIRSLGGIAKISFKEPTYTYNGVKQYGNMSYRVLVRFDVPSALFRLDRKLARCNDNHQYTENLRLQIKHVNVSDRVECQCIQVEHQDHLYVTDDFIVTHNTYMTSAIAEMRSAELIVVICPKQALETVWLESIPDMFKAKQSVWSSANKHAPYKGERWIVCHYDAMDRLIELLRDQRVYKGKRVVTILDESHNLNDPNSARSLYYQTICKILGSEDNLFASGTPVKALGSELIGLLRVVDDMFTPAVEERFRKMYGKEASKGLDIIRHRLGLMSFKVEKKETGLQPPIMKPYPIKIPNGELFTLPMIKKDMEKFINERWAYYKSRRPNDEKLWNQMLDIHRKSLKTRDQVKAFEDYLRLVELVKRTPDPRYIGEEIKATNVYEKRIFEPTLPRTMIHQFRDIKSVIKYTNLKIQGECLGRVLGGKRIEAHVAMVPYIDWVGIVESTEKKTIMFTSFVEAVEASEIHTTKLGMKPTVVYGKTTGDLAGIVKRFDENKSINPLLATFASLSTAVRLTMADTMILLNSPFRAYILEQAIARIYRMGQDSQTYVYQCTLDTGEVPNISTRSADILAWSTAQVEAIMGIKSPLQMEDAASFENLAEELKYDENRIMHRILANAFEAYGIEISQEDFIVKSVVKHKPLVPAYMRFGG
UniProt F8SJH1: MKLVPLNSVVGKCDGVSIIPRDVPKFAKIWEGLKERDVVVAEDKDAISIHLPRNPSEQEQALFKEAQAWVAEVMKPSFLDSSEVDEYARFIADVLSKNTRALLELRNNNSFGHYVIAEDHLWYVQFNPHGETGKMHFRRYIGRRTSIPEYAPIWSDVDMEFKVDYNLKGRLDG
UniProt F8SJE9: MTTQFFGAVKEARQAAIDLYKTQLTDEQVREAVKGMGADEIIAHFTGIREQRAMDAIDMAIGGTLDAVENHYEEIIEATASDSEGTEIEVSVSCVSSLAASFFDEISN

Assay [2] has as its target T1, miniTurboID-gp53 (ΦPA3 ChmA fused to miniTurboID) (Pseudomonas phage ΦPA3) (UniProt F8SJT5).
T1 sequence: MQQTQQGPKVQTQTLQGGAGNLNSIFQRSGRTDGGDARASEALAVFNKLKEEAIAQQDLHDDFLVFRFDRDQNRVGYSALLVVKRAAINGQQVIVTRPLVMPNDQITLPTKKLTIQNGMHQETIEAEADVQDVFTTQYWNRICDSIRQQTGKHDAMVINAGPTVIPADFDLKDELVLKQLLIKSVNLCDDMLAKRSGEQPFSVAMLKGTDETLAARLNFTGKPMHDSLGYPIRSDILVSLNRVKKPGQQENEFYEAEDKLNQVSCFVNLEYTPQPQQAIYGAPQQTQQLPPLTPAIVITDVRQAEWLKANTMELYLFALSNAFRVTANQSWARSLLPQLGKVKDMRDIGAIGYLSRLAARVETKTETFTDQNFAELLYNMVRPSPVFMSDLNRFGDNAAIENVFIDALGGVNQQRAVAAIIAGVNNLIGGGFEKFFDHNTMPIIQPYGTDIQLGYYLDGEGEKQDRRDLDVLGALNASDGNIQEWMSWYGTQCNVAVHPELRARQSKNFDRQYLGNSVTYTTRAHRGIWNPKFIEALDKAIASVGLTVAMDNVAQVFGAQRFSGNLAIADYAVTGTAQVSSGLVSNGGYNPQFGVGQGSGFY
Described as above.

Assay [3] concerns the target T2, GFP-tagged ΦPA3 ChmA (gp53) (Pseudomonas phage ΦPA3) (UniProt F8SJT5).
T2 sequence: T1 sequence
Briefly: affinity purification with mass spectrometry; GFP-Trap magnetic agarose pull-down from lysate of ΦPA3-infected P. aeruginosa (45 min post infection), 150 mM NaCl, 0.05% NP-40 substitute washes; mass spectrometry of the full eluate.

Assay [4] has as its target ΦPA3 gp2 with a C-terminal GFP tag (Pseudomonas phage ΦPA3) (UniProt F8SJN3). Described as above.
For assay [5] the target is unchanged. As to the kind of experiment: affinity purification with mass spectrometry; GFP-Trap magnetic agarose pull-down from lysate of ΦPA3-infected P. aeruginosa (45 min post infection); the ~70 kDa doublet cut from a Coomassie-stained gel, tryptic mass spectrometry.
Assay [6] addresses ΦPA3 gp2 with an N-terminal GFP tag (Pseudomonas phage ΦPA3). Briefly: affinity purification with mass spectrometry; GFP-Trap magnetic agarose pull-down from lysate of ΦPA3-infected P. aeruginosa (45 min post infection), 150 mM NaCl, 0.05% NP-40 substitute washes; mass spectrometry of the full eluate.

No constants are given. Whether binding was seen depends on the method and setting. In cells and extracts the contact can be indirect. A yes stands for co-enrichment or nearness to the bait. Other partners may have been found. For some of these results: Where a sequence is shown, tags or fusion partners need not be part of it.

In the case of ΦPA3 gp78 (from UniProt F8SJV7), the binding result in assay [1] and in assay [2] was “binds” each time. For ΦPA3 gp14 (from UniProt F8SJP5), the binding entry in assay [2] was “binds”. In the case of ΦPA3 gp12 (from UniProt F8SJP3), the binding entry in assay [1] and in assay [2] was “binds” throughout. For the molecule ΦPA3 gp200 (from UniProt F8SJ43), the binding result in assay [1] and in assay [2] was “binds” each time. For ΦPA3 gp358 (from UniProt F8SJJ0), the binding entry in assay [3], in assay [4], in assay [1] and in assay [2] was “binds” throughout.

As to ΦPA3 gp210 (from UniProt F8SJ53), the binding result in assay [1] is “binds”. Consider ΦPA3 gp52 (from UniProt F8SJT4), for which the binding result in assay [2] is reported as “binds”. As for ΦPA3 gp370 (from UniProt F8SJK2), the binding entry in assay [2] is listed as “binds”. As for ΦPA3 gp108 (from UniProt F8SJY4), in assay [1], the binding result was “binds”. Consider “ΦPA3 gp148 (portal protein), made by the phage (from UniProt F8SK21)”, for which the binding entry in assay [4] and in assay [2] was “binds” throughout. In the case of ΦPA3 gp49 (from UniProt F8SJT1), the binding entry in assay [1] is reported as “binds”. ΦPA3 gp271 (from UniProt F8SJA8): the binding entry in assay [1] and in assay [2] was “binds” each time. With ΦPA3 gp164 (Pseudomonas phage ΦPA3), the binding entry in assay [2] is recorded as “binds”.

For the molecule ΦPA3 gp166 (from UniProt F8SK39), the binding entry in assay [1] and in assay [2] was “binds” throughout.

Consider ΦPA3 gp138 (Pseudomonas phage ΦPA3), for which the binding result in assay [3] and in assay [2] was “binds” each time. For the molecule ΦPA3 gp85 (from UniProt F8SJW4), the binding result in assay [2] is “binds”. As for ΦPA3 gp247 (from UniProt F8SJM1), the binding result in assay [1] and in assay [2] was “binds” each time. Consider ΦPA3 gp375 (from UniProt F8SJK7), for which the binding result in assay [1] was “binds”.

Turning to ΦPA3 gp239 (from UniProt F8SJ82), the binding result in assay [1] and in assay [2] was “binds” each time.

In the case of ΦPA3 gp222 (from UniProt F8SJ65), the binding result in assay [1] and in assay [2] was “binds” each time. As for ΦPA3 gp61 (from UniProt F8SJU3), the binding result in assay [1] and in assay [2] was “binds” in each case. In the case of ΦPA3 gp378 (from UniProt F8SJL0), the binding result in assay [2] is recorded as “binds”. Still for that read-out and setting: in the case of ΦPA3 gp106 (from UniProt F8SJY2) it was “binds”. Turning to ΦPA3 gp18 (from UniProt F8SJP9), the binding result in assay [1] and in assay [2] was “binds” each time. As to ΦPA3 gp64 (from UniProt F8SJU6), the binding result in assay [4], in assay [1] and in assay [2] was “binds” each time. With ΦPA3 gp219 (from UniProt F8SJ62), in assay [2], the binding result was “binds”. Consider ΦPA3 gp217 (from UniProt F8SJ60), for which the binding result in assay [1] and in assay [2] was “binds” throughout. Consider ΦPA3 gp144 (from UniProt F8SK17), for which, in assay [1], the binding entry is listed as “binds”. Take ΦPA3 gp63 (from UniProt F8SJU5): the binding result in assay [4], in assay [1] and in assay [2] was “binds” each time. For the molecule ΦPA3 gp202 (from UniProt F8SJ45), the binding entry in assay [2] is on record as “binds”. As to ΦPA3 gp350 (from UniProt F8SJI4), the binding entry in assay [1] is listed as “binds”.

ΦPA3 gp131 (from UniProt F8SK05): the binding result in assay [1] and in assay [2] was “binds” in each case.

Regarding ΦPA3 gp253 (from UniProt F8SJ94), the binding entry in assay [1] was “binds”. As to ΦPA3 gp233 (from UniProt F8SJ76), the binding result in assay [1] and in assay [2] was “binds” each time. As to ΦPA3 gp119 (Pseudomonas phage ΦPA3), in assay [2], the binding entry was “binds”. For the molecule ΦPA3 gp308 (from UniProt F8SJE4), the binding result in assay [1] and in assay [2] was “binds” each time. As to ΦPA3 gp257 (from UniProt F8SJM3), the binding result in assay [1] and in assay [2] was “binds” throughout. Consider “ΦPA3 gp62, made by the phage (from UniProt F8SJU4)”, for which the binding result in assay [1] and in assay [2] was “binds” throughout. Consider ΦPA3 gp355 (from UniProt F8SJI8), for which the binding entry in assay [2] is “binds”. For the molecule ΦPA3 gp335 (from UniProt F8SJH1), the binding entry in assay [1] and in assay [2] was “binds” in each case. On to “ΦPA3 gp2 (ChmB), made by the phage (from UniProt F8SJN3)”, for which the binding result in assay [2] is listed as “binds”.

On to ΦPA3 gp313 (from UniProt F8SJE9), for which the binding entry in assay [1] was “binds”. With ΦPA3 gp134 (from UniProt F8SK07), the binding entry in assay [1] and in assay [2] was “binds” throughout.

B1: ΦPA3 ChmA (gp53), made by the phage (protein, UniProt F8SJT5 1-602)
chain: T1 sequence
In the case of B1, the binding entry in assay [5], in assay [4] and in assay [6] was “binds” each time.
